{"source": "PubChem BioAssay AID1224826 – NIAID – 2016", "test": "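Regulators of Tlr4 signalling leading to Tnf-alpha expression in macrophages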 (primary screen)", "system": "RAW264.7 G9 macrophages from mouse bearing reporters for p65 (GFP) and the Tnf promoter (mCherry)", "reagents": "siRNA pool against mouse genes, 100 nM", "timing": "16 h of LPS stimulation, after 2 days of siRNA transfection", "treatment": "bacterial lipopolysaccharide (Salmonella minnesota R595), 10 ng/ml", "detection": "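Nuclear mCherry signal of the Tnf promoter reporter measured by imaging after background removal, scaled to each plate median and turned into robust z-scores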", "scale": "Tnf reporter robust z-score: higher = stronger Tnf promoter reporter signal after LPS", "active means": "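Called active when robust z-score is at most -1.3, matching the median of the Tlr4 knock-down control, or over 3; control wells and wells with under 50 cells never active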", "meaning of the calls": "active = Tnf reporter clearly lowered or raised; inactive = no clear change in Tnf reporter", "note": "The deposit covers about 17,000 reagents; this is an unselected part. About 1,110 of them (6.6%) were called active. 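Active means lowered or raised reporter signal; replicate intensities are raw and not normalised per plate.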 Unmarked entries are inactive. Not all columns of the deposit are shown."}
{"gene":"Plekha3 (pleckstrin homology domain containing A3)","Tnf reporter robust z-score":1.48,"fewer than 50 cells in well":"enough cells in well"}
{"gene":"Dars1 (aspartyl-tRNA synthetase 1)","Tnf reporter robust z-score":-0.51,"fewer than 50 cells in well":"enough cells in well"}
{"gene":"Tsr1 (TSR1 20S rRNA accumulation)","Tnf reporter robust z-score":0.76,"fewer than 50 cells in well":"enough cells in well"}
{"gene":"Vopp1 (vesicular, overexpressed in cancer, prosurvival protein 1)","Tnf reporter robust z-score":0.62,"fewer than 50 cells in well":"enough cells in well"}
{"gene":"Pank3 (pantothenate kinase 3)","Tnf reporter robust z-score":-0.18,"fewer than 50 cells in well":"enough cells in well"}
{"gene":"Galnt7 (polypeptide N-acetylgalactosaminyltransferase 7)","Tnf reporter robust z-score":-0.81,"fewer than 50 cells in well":"enough cells in well"}
{"gene":"Or5d47 (olfactory receptor family 5 subfamily D member 47)","Tnf reporter robust z-score":-0.11,"fewer than 50 cells in well":"enough cells in well"}
{"gene":"Socs7 (suppressor of cytokine signaling 7)","Tnf reporter robust z-score":0.08,"fewer than 50 cells in well":"enough cells in well"}
{"gene":"Extl3 (exostosin-like glycosyltransferase 3)","Tnf reporter robust z-score":0.59,"fewer than 50 cells in well":"enough cells in well"}
{"gene":"4933434M16Rik (RIKEN cDNA 4933434M16 gene)","Tnf reporter robust z-score":1.35,"fewer than 50 cells in well":"enough cells in well"}
{"gene":"Ifi44 (interferon-induced protein 44)","Tnf reporter robust z-score":0.05,"fewer than 50 cells in well":"enough cells in well"}
{"gene":"A730020M07Rik (RIKEN cDNA A730020M07 gene)","Tnf reporter robust z-score":0.67,"fewer than 50 cells in well":"enough cells in well"}
{"gene":"Gfpt1 (glutamine fructose-6-phosphate transaminase 1)","Tnf reporter robust z-score":-0.28,"fewer than 50 cells in well":"enough cells in well"}
{"gene":"Rab31 (RAB31, member RAS oncogene family)","fewer than 50 cells in well":"fewer than 50 cells per well; well left out of calls"}

Reformatted: entries from further up.
gene,Tnf reporter robust z-score,fewer than 50 cells in well
Galnt7 (polypeptide N-acetylgalactosaminyltransferase 7),-0.81,enough cells in well
Or5d47 (olfactory receptor family 5 subfamily D member 47),-0.11,enough cells in well
